Laboratory results as given in paper PMC10033409, “Autoregulation of GPCR signalling through the third intracellular loop” (Nature, 2023).
These are yes or no findings as the source states them, for the method shown. In cells and extracts the contact can be indirect. Some binding calls cover weakened binding; strength is not graded here.

Target: T1, Bio-Qpep, N-terminally biotinylated Gq peptide
T1 sequence (peptide, N-terminal biotin): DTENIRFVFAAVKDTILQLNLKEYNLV
Test: pull-down; β2AR–mCerulean in membranes with 100 µM isoproterenol and 10 µM N-terminally biotinylated Gq peptide, 30 min on ice; streptavidin-coated magnetic beads; percent mCerulean depleted from the supernatant; only the target purified

Row | Substance | binding
1 | β2AR–mCerulean, wild type (from UniProt P07550 1-413) (receptor) | binds weakly
2 | β2AR(∆ICL3)–mCerulean (∆236–257) (from UniProt P07550 1-413) (receptor) | binds
